Results on three substances are retold here after paper PMC6708219.

Chains of the proteins cited; added tags and fusions are not shown. Lines headed by an entry give the natural chain unless they say otherwise; changes in a name come on top. Residues count along the entry.
UniProt O14763, residues 56-440: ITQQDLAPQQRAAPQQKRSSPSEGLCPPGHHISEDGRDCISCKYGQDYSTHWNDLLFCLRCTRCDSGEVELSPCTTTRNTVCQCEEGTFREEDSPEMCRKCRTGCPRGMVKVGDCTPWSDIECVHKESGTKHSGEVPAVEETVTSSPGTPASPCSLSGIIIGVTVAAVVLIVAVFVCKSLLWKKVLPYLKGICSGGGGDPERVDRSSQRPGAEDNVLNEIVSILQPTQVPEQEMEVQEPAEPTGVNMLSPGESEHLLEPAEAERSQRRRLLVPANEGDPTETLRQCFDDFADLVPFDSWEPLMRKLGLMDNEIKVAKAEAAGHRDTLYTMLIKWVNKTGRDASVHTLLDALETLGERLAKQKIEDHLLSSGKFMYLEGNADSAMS
UniProt Q13158: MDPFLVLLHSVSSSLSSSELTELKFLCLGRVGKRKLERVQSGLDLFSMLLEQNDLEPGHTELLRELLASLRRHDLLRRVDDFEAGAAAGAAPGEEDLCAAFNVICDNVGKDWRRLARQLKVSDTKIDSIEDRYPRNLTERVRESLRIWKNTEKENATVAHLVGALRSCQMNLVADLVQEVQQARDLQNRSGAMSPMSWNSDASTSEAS
UniProt Q14790: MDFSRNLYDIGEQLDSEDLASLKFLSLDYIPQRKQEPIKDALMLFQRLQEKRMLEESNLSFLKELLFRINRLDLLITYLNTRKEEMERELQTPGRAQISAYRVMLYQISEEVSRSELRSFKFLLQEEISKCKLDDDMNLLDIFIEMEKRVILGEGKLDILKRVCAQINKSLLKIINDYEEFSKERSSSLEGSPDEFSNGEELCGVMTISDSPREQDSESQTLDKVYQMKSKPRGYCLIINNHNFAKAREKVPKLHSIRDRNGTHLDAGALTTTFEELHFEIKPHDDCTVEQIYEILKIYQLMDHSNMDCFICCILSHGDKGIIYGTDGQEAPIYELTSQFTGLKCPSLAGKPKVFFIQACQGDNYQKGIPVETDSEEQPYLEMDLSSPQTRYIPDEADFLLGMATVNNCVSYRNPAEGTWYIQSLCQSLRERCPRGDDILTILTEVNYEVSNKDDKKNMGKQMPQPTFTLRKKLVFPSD

Results are given in words; binding and its absence hold for the method and conditions named. In cells and extracts the contact can be indirect. Some binding calls cover weakened binding; strength is not graded here.

Test [1] concerns the target TRAIL-R2/DR5 (human (endogenous in BxPC3)) (UniProt O14763). As to the kind of experiment: co-IP; as a5 (DR5 precipitation with D4E7 beads), untreated BxPC3 cells; compared with control IgG.
Test [2] shares this target. As to the kind of experiment: co-IP; BxPC3 cells incubated with 9F7-F11 (24 h to 120 h); 2 mg lysate precipitated overnight at 4 C with Dynabeads cross-linked with anti-DR5 antibody D4E7, ten washes in CHAPS buffer; western blot for caspase-8 and FADD. A general note: In western blotting, separated proteins are transferred to a membrane and probed.

“Fas-associated protein with death domain (FADD) (from UniProt Q13158 1-208)”: the results for the binding result in test [1] and in test [2] were “binds weakly” and “binds”, respectively.
As for “caspase-8 p18 cleavage fragment (from UniProt Q14790 217-374) (domain or fragment)”, in test [2], the binding result is “binds”.
Turning to “pro-caspase 8 (from UniProt Q14790 1-479) (enzyme)”, in test [1], the binding result is reported as “binds weakly”.
